Data as given in PubChem BioAssay AID1159584 (Peter MacCallum Cancer Centre, 2016).
Here is a random part of about 18,000 reagents tested. Not all columns of the deposit are shown. The record does not give: the amount of reagent, the time to read-out.

Purpose: 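Genes that CDH1-null MCF10A cells selectively depend on to survive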 (primary screen)
System: human MCF10A breast epithelial cells, parental and CDH1-null
Reagent: siRNA against human genes
Detection: 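Cell viability by CellTiter-Glo ATP luminescence, each line scaled to the mean of mock wells across plates, then CDH1-null over parental ratio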
Direction: CDH1-null / parental viability ratio: higher = CDH1-null cells survive relatively better than parental; CDH1-null viability vs mock: higher = more viable CDH1-null cells
Units: CDH1-null viability vs mock in fraction of mock

ZDHHC5 scored CDH1-null / parental viability ratio 0.99; CDH1-null viability vs mock 0.89.
With knock-down of CXorf38, the record shows CDH1-null / parental viability ratio 1.15; CDH1-null viability vs mock 1.26.
After knock-down of SFTPC, the screen gave CDH1-null / parental viability ratio 1.07; CDH1-null viability vs mock 0.95.
After knock-down of LSMEM2 the results were CDH1-null / parental viability ratio 1.03; CDH1-null viability vs mock 0.72.
FKTN gave CDH1-null / parental viability ratio 0.98; CDH1-null viability vs mock 0.94.
Knock-down of NOVA1 came out at: CDH1-null / parental viability ratio 0.99; CDH1-null viability vs mock 1.06.
After knock-down of OOSP2, the record shows CDH1-null / parental viability ratio 1.05; CDH1-null viability vs mock 0.86.
NTN4 gave CDH1-null / parental viability ratio 0.97; CDH1-null viability vs mock 0.6.
With knock-down of RAB1B, the record shows CDH1-null / parental viability ratio 1.03; CDH1-null viability vs mock 0.66.
HMGN4 showed CDH1-null / parental viability ratio 1.58; CDH1-null viability vs mock 0.6.
XKR9 showed CDH1-null / parental viability ratio 1.52; CDH1-null viability vs mock 0.94.
For ACKR1, the entry reads CDH1-null / parental viability ratio 1.29; CDH1-null viability vs mock 0.76.
With knock-down of KIF1C, the record shows CDH1-null / parental viability ratio 0.83; CDH1-null viability vs mock 0.5.
GARIN1B scored CDH1-null / parental viability ratio 1.08; CDH1-null viability vs mock 0.98.
Against DLG2 the deposit lists CDH1-null / parental viability ratio 0.82; CDH1-null viability vs mock 0.9.
After knock-down of POTEB3, the screen gave CDH1-null / parental viability ratio 1.31; CDH1-null viability vs mock 0.98.
APEX1 showed CDH1-null / parental viability ratio 0.86; CDH1-null viability vs mock 0.69.
TCIRG1 showed CDH1-null / parental viability ratio 1.05; CDH1-null viability vs mock 0.63.
GPRC5B scored CDH1-null / parental viability ratio 1.54; CDH1-null viability vs mock 0.83.
After knock-down of CLK1, the screen gave CDH1-null / parental viability ratio 0.93; CDH1-null viability vs mock 0.8.
With knock-down of TECTB, the screen gave CDH1-null / parental viability ratio 1.38; CDH1-null viability vs mock 0.44.
CTAGE6 showed CDH1-null / parental viability ratio 1.03; CDH1-null viability vs mock 0.38.
With knock-down of LRRC14, the record shows CDH1-null / parental viability ratio 1.07; CDH1-null viability vs mock 0.75.
FIGN scored CDH1-null / parental viability ratio 1.1; CDH1-null viability vs mock 0.55.

Ordered by “CDH1-null viability vs mock” (lowest first): some entries from above.
TCIRG1 | CDH1-null / parental viability ratio = 1.05; CDH1-null viability vs mock = 0.63
GPRC5B | CDH1-null / parental viability ratio = 1.54; CDH1-null viability vs mock = 0.83
